Assay results as given in patent US20230121771A1, “A PHARMACEUTICAL COMBINATION OF AN ARTEMISININ COMPOUND, 5-AMINOLEVULINIC ACID OR METHYL-5-AMINOLEVULINIC ACID AND A CHEMOTHERAPEUTIC AGENT” (JLP Health GmbH, priority 2020, published 2023).
At least one compound was matched to its structure with a doubt left.

Tested on: cancer cell lines originating from other tissues
Experiment: 6-day cell survival assay, cancer cell lines originating from other tissues (summary)
Format: cell-based
Settings: lung, liver, breast, pancreas lines
Protocol: Cell survival assays (FIGS. 12-19) were performed in 96-well plates in technical duplicates. Treatments started 24 hours post cell plating and lasted for 6-days prior to cell viability assessment with the Cell Titer Glo 2.0 Luminescent assay (Promega, G9242).

With `Cn1nnc2c(C(N)=O)ncn2c1=O` [temozolomide] the “effect of the chemotherapeutic agent when combined with the double combination ART/DHA/ARS with 5-ALA” value was “enhances”.
